This is one part of the list.
Tests used:
Assay in all cases: log2 fold change, soluble protein after heating vs DMSO (PISA); higher = thermal stabilisation; K562 lysate, 10 uM; active = over 0.2 and 3.5 SD of the protein, either way, in both replicates (recomputed)
vemurafenib = compound: CCCS(=O)(=O)Nc1ccc(F)c(C(=O)c2c[nH]c3ncc(-c4ccc(Cl)cc4)cc23)c1F [vemurafenib]
Procedure, shortened: (§1)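 A 30 min treatment with 10 μM compound was applied to crude K562 extract at 1 mg/mL protein in PBS pH 7.4 with 1 mM MgCl2. Heating for 3 min spanned 48°C-58°C, after which aliquots were pooled, adjusted to 0.5% NP-40 at 4°C and spun at 21,000xg for 90 min. TMTpro 16plex LC-MS/MS of the supernatant, with channel sums equalised, gave values recorded as log-two fold change in thermal stability against solvent controls, from duplicates.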

Amino acid sequences for entries named in this document (tags omitted). A change or cut given only in a name is not applied to a line headed by its entry.
UniProt Q86U38: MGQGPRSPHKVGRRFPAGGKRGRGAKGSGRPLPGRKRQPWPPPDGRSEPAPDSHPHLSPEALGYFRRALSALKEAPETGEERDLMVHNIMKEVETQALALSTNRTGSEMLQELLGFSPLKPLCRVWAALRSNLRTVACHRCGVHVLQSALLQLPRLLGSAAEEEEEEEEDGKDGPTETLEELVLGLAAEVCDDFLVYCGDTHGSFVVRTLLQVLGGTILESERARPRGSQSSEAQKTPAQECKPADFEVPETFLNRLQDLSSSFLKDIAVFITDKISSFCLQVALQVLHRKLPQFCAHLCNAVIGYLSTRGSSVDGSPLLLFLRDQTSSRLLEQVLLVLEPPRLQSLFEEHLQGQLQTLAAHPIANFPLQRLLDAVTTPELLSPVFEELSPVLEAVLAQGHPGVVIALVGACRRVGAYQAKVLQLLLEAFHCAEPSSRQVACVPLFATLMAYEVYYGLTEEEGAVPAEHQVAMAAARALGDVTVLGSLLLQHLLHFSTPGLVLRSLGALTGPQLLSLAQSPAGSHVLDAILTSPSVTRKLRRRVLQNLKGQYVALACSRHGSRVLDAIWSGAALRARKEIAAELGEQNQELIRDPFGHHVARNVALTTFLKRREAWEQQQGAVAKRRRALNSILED
UniProt P50583: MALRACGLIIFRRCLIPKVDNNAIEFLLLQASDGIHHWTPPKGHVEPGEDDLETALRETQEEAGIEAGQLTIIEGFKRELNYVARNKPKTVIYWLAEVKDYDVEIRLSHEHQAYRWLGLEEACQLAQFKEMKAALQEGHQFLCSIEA
UniProt Q96DE0: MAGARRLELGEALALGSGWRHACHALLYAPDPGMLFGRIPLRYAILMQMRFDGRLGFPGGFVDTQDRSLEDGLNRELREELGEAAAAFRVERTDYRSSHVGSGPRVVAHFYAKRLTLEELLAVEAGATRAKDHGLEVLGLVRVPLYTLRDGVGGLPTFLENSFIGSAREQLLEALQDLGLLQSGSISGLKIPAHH
UniProt Q96MF7: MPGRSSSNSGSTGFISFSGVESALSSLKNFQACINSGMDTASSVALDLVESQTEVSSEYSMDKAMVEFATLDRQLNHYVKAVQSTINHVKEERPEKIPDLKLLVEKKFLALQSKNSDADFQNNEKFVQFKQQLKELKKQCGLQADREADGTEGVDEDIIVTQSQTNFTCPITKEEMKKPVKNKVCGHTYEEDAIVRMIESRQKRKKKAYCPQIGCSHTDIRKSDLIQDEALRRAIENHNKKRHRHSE
UniProt P49790, whole entry, looked up: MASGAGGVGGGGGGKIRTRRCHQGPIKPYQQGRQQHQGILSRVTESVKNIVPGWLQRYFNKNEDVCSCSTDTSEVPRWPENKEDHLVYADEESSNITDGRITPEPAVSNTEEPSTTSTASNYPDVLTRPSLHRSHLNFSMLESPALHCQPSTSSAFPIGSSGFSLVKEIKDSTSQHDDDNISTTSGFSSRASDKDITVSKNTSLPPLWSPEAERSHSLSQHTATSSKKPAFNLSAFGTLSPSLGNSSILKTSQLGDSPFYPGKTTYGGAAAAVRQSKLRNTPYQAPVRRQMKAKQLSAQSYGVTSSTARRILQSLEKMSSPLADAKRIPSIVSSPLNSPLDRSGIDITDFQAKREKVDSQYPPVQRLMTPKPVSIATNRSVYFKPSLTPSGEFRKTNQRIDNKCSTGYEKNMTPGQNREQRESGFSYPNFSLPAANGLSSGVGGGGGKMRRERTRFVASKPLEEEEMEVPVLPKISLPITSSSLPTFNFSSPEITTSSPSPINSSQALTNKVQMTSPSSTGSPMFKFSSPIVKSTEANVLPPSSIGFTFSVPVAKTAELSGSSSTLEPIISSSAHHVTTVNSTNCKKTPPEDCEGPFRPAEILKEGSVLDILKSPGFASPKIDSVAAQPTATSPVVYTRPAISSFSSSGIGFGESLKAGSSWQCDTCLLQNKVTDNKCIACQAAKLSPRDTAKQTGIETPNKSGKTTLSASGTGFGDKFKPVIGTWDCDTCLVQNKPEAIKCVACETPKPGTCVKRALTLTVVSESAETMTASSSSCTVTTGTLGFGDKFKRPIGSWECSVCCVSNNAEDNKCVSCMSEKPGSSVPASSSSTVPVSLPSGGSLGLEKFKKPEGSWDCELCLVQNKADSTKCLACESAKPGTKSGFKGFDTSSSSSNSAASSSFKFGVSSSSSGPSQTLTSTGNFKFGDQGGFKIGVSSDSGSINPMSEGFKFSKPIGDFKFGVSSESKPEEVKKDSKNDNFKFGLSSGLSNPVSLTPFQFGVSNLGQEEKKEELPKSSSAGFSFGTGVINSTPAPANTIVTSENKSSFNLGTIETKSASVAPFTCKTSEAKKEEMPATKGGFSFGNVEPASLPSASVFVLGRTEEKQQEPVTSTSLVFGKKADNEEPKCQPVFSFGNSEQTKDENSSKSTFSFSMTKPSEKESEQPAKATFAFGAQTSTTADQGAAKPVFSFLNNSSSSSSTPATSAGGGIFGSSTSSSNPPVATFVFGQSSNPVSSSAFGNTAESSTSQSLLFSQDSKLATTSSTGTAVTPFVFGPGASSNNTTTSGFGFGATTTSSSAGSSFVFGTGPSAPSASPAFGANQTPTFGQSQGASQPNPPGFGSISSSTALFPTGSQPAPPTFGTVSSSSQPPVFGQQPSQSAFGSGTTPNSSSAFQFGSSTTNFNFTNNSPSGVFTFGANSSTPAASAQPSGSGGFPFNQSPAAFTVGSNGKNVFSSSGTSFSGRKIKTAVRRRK
UniProt P78549: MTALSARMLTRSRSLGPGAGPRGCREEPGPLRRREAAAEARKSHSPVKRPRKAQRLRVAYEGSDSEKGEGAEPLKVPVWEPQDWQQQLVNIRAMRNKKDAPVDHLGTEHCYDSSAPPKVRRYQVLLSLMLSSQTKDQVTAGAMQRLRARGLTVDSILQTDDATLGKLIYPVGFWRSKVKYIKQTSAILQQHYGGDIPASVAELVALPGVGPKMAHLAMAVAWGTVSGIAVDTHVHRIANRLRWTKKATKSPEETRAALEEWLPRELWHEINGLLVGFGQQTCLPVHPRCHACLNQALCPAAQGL
UniProt Q9Y5Y2: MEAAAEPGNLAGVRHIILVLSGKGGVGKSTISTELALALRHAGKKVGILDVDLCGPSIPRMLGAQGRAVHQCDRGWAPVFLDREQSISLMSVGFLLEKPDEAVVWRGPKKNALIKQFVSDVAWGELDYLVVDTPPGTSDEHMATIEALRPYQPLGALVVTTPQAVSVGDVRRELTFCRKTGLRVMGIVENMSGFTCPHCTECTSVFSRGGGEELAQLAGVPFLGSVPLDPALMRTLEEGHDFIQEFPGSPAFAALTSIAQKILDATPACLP
UniProt O75607: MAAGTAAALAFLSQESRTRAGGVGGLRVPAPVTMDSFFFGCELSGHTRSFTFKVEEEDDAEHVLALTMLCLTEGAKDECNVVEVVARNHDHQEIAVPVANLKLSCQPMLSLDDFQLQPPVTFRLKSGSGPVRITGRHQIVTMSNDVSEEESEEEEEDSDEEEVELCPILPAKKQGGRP
UniProt Q14980: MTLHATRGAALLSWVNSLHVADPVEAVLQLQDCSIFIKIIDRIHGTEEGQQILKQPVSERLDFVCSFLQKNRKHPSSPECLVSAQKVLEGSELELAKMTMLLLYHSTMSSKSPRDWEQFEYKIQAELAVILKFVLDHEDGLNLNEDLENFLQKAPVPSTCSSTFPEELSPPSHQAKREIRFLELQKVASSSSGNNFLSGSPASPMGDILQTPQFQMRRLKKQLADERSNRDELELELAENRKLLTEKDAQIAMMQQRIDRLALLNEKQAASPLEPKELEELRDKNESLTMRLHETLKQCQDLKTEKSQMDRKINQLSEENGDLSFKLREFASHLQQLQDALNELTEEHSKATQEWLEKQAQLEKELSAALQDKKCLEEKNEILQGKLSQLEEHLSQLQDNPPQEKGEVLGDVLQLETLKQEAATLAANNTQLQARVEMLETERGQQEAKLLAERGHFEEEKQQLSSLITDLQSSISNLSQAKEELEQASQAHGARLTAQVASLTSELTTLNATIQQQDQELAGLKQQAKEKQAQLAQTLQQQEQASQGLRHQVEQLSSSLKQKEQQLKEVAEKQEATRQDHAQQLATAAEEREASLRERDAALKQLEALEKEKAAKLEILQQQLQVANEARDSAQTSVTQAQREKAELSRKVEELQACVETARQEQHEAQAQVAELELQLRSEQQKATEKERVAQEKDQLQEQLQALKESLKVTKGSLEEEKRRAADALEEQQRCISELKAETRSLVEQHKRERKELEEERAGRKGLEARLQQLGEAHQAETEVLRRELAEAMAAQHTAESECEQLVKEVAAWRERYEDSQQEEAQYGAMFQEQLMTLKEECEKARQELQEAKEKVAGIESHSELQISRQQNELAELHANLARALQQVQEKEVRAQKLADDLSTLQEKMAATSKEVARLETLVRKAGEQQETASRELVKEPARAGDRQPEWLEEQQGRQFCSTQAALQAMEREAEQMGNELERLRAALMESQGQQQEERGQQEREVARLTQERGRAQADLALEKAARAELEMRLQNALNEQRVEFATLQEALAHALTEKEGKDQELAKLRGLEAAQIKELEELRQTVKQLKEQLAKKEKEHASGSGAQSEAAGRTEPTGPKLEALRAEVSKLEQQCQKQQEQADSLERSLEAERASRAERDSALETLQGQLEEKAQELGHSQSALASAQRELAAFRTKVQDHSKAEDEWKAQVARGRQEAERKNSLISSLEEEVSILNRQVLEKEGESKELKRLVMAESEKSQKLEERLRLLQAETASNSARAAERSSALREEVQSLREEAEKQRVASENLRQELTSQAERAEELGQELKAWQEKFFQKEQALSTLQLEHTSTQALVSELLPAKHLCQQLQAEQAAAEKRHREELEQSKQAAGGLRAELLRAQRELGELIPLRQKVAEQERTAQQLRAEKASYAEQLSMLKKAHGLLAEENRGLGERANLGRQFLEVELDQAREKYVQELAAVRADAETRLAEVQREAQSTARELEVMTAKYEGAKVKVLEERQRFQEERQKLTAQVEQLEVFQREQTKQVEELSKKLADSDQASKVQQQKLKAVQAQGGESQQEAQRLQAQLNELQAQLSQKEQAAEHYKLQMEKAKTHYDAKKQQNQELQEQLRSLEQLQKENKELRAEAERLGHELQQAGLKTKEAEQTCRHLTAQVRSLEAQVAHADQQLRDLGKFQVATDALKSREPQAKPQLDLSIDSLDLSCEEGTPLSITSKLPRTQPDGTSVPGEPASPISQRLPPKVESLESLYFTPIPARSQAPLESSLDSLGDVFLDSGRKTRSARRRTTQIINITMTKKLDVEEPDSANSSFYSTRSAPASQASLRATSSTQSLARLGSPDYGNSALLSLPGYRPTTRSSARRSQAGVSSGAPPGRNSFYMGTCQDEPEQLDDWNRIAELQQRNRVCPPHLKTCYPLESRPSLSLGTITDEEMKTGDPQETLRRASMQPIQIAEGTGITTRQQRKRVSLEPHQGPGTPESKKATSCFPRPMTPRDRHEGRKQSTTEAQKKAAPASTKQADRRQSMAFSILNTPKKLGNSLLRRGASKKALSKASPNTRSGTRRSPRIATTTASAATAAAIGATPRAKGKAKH
UniProt Q9BV86: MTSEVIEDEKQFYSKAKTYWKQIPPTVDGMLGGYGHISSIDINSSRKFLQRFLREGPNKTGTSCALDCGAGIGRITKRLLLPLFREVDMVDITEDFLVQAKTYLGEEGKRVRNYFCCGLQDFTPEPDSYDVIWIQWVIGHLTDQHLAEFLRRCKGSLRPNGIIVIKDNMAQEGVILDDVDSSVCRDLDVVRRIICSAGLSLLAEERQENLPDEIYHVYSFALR
UniProt P40261: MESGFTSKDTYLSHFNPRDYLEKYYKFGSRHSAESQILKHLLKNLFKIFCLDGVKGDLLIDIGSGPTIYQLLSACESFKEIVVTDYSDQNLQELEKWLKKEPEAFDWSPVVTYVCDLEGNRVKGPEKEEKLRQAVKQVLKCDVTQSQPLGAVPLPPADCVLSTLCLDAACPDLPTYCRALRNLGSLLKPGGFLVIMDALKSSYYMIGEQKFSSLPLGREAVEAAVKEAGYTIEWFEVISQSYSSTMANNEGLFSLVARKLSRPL
UniProt Q9Y3C1: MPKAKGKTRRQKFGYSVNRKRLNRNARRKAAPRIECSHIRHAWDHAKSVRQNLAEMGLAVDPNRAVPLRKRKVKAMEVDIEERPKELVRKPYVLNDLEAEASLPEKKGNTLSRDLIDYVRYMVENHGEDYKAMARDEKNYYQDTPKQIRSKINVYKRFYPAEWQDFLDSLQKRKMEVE

[1] = compound: CCCS(=O)(=O)Nc1ccc(F)c(C(=O)c2c[nH]c3ncc(Cl)cc23)c1F
Procedure, shortened: as §1

barasertib = compound: CCN(CCCOc1ccc2c(Nc3cc(CC(=O)Nc4cccc(F)c4)[nH]n3)ncnc2c1)CCOP(=O)(O)O [barasertib]
Procedure, shortened: as §1

[2] = compound: CC[C@@H]1C(=O)N(C)c2cnc(Nc3ccc(C(=O)NC4CCN(C)CC4)cc3OC)nc2N1C1CCCC1
Procedure, shortened: as §1

volasertib = compound: CC[C@@H]1C(=O)N(C)c2cnc(Nc3ccc(C(=O)N[C@H]4CC[C@H](N5CCN(CC6CC6)CC5)CC4)cc3OC)nc2N1C(C)C [volasertib]
Procedure, shortened: as §1

[3] = compound: CCn1c(C(=O)N(C2CC2)C2CC2)cc2c3c(ncn3C)c(Nc3cc(C)n(C)n3)nc21
Procedure, shortened: as §1

[4] = compound: CCn1cc(-c2ccnc3[nH]c(-c4cccc(CN(C)C)c4)cc23)c(-c2ccc(NC(=O)N(C)C)cc2)n1
Procedure, shortened: as §1

[5] = compound: CN1CCC(CNc2ccc3ncc(-c4cccc(OC(F)(F)F)c4)n3n2)CC1
Procedure, shortened: as §1

saracatinib = compound: CN1CCN(CCOc2cc(OC3CCOCC3)c3c(Nc4c(Cl)ccc5c4OCO5)ncnc3c2)CC1 [saracatinib]
Procedure, shortened: as §1

sotrastaurin = compound: CN1CCN(c2nc(C3=C(c4c[nH]c5ccccc45)C(=O)NC3=O)c3ccccc3n2)CC1 [sotrastaurin]
Procedure, shortened: as §1

alvocidib = compound: CN1CC[C@H](c2c(O)cc(O)c3c(=O)cc(-c4ccccc4Cl)oc23)[C@H](O)C1 [alvocidib]
Procedure, shortened: as §1

Tubastatin A = compound: CN1CCc2c(c3ccccc3n2Cc2ccc(C(=O)NO)cc2)C1 [Tubastatin A]
Procedure, shortened: as §1

[6] = compound: CNC(=O)C1=CC=CC=C1NC2=NC(=NC=C2Cl)NC3=C(C=C(C=C3)N4CCOCC4)OC
Procedure, shortened: as §1

defactinib = compound: CNC(=O)c1ccc(Nc2ncc(C(F)(F)F)c(NCc3nccnc3N(C)S(C)(=O)=O)n2)cc1 [defactinib]
Procedure, shortened: as §1

[7] = compound: CNc1nc(-c2ccc3c(N)n[nH]c3c2)cc(N2C[C@@H](C(=O)NC3CCCCC3)CC[C@H]2C)n1
Procedure, shortened: as §1

encorafenib = compound: COC(=O)N[C@@H](C)CNc1nccc(-c2cn(C(C)C)nc2-c2cc(Cl)cc(NS(C)(=O)=O)c2F)n1 [encorafenib]
Procedure, shortened: as §1

[8] = compound: COC(=O)[C@H](CCSC)NC(=O)C1=C(C=C(C=C1)NC[C@H](CS)N)C2=CC=CC=C2
Procedure, shortened: as §1

alisertib = compound: COc1cc(Nc2ncc3c(n2)-c2ccc(Cl)cc2C(c2c(F)cccc2OC)=NC3)ccc1C(=O)O [alisertib]
Procedure, shortened: as §1

[9] = compound: COc1cc2nc(-c3cc(F)ccc3O)nc(N[C@@H]3CNC[C@H]3C(C)(C)O)c2cc1OC
Procedure, shortened: as §1

gefitinib = compound: COc1cc2ncnc(Nc3ccc(F)c(Cl)c3)c2cc1OCCCN1CCOCC1 [gefitinib]
Procedure, shortened: as §1

Target | log2 fold change (vemurafenib) | log2 fold change [1] | log2 fold change (barasertib) | log2 fold change [2] | log2 fold change (volasertib) | log2 fold change [3] | log2 fold change [4] | log2 fold change [5] | log2 fold change (saracatinib) | log2 fold change (sotrastaurin) | log2 fold change (alvocidib) | log2 fold change (Tubastatin A) | log2 fold change [6] | log2 fold change (defactinib) | log2 fold change [7] | log2 fold change (encorafenib) | log2 fold change [8] | log2 fold change (alisertib) | log2 fold change [9] | log2 fold change (gefitinib)
NRBF2 (UniProt Q96F24) | inactive: -0.008 | inactive: 0.038 | inactive: 0.022 | inactive: 0.031 | inactive: -0.021 | inactive: 0.045 | inactive: -0.023 | inactive: -0.023 | inactive: -0.008 | inactive: -0.005 | inactive: 0.014 | inactive: -0.08 | inactive: 0.044 | inactive: -0.036 | inactive: -0.004 | inactive: 0.076 | inactive: -0.087 | inactive: -0.015 | inactive: -0.01 | inactive: 0.017
NOP9 (UniProt Q86U38) | inactive: -0.047 | inactive: -0.034 | inactive: 0.003 | inactive: -0.083 | inactive: -0.018 | inactive: 0.093 | inactive: 0.151 | inactive: -0.087 | inactive: 0.057 | inactive: 0.014 | inactive: 0.064 | inactive: 0.005 | inactive: -0.08 | inactive: 0.028 | inactive: -0.019 | inactive: 0.033 | inactive: 0.008 | inactive: 0.007 | inactive: -0.028 | inactive: 0.057
NUDT2 (UniProt P50583) | inactive: -0.035 | inactive: 0.033 | inactive: 0.021 | inactive: -0.02 | inactive: -0.022 | inactive: -0.007 | inactive: -0.038 | inactive: 0.051 | inactive: 0.01 | inactive: -0.018 | inactive: -0.028 | inactive: -0.023 | inactive: -0.025 | inactive: 0.044 | inactive: 0.003 | inactive: 0.022 | inactive: -0.042 | inactive: 0.04 | inactive: -0.037 | inactive: -0.079
NUDT16 (UniProt Q96DE0) | inactive: -0.035 | inactive: 0.026 | inactive: 0.007 | inactive: 0.05 | inactive: -0.022 | inactive: -0.008 | inactive: -0.049 | inactive: 0.07 | inactive: -0.008 | inactive: -0.013 | inactive: -0.023 | inactive: 0.081 | inactive: 0.02 | inactive: 0.067 | inactive: 0.093 | inactive: 0.048 | inactive: -0.01 | inactive: 0.002 | inactive: -0.006 | inactive: 0.029
NSMCE2 (UniProt Q96MF7) | inactive: -0.05 | inactive: -0.014 | inactive: 0.011 | inactive: -0.035 | inactive: -0.013 | inactive: 0.113 | inactive: 0.065 | inactive: -0.062 | inactive: 0.023 | inactive: 0.015 | inactive: 0 | inactive: -0.02 | inactive: 0.098 | inactive: -0.026 | inactive: -0.175 | inactive: 0.006 | inactive: -0.03 | inactive: -0.019 | inactive: 0.012 | inactive: 0.019
NUDT5 (UniProt Q9UKK9) | inactive: -0.019 | inactive: -0.001 | inactive: -0.042 | inactive: 0.043 | inactive: 0.015 | inactive: -0.054 | inactive: -0.267 | active: 0.27 | inactive: -0.022 | inactive: 0.034 | inactive: -0.137 | inactive: 0.052 | inactive: -0.01 | inactive: 0.072 | inactive: -0.018 | inactive: 0.034 | inactive: 0.006 | inactive: 0.004 | inactive: 0.003 | inactive: -0.002
NUP153 (UniProt P49790) | inactive: 0.011 | inactive: 0.007 | inactive: 0.004 | inactive: 0.066 | inactive: -0.006 | inactive: -0.005 | inactive: 0.016 | inactive: 0.009 | inactive: 0.021 | inactive: -0.015 | inactive: -0.029 | inactive: 0.027 | inactive: 0.018 | inactive: 0 | inactive: 0.021 | inactive: 0.039 | inactive: -0.084 | inactive: -0.03 | inactive: 0.033 | inactive: -0.004
NTHL1 (UniProt P78549) | inactive: 0.083 | inactive: 0.061 | inactive: -0.042 | inactive: 0.101 | inactive: 0.005 | inactive: -0.069 | inactive: -0.01 | inactive: -0.224 | inactive: -0.079 | inactive: 0.097 | inactive: -0.041 | inactive: -0.073 | inactive: -0.017 | inactive: 0.172 | inactive: -0.013 | inactive: -0.222 | inactive: 0.289 | inactive: -0.097 | inactive: 0.15 | inactive: -0.001
NUBP2 (UniProt Q9Y5Y2) | inactive: -0.017 | inactive: 0.009 | inactive: -0.079 | inactive: -0.033 | inactive: -0.072 | inactive: 0.04 | inactive: 0.188 | inactive: -0.105 | inactive: 0.015 | inactive: 0.06 | inactive: 0.125 | inactive: -0.038 | inactive: 0 | inactive: -0.008 | inactive: -0.01 | inactive: 0.032 | inactive: 0.131 | inactive: -0.013 | inactive: 0.004 | inactive: -0.017
NOC3L (UniProt Q8WTT2) | inactive: 0.033 | inactive: -0.004 | inactive: 0.071 | inactive: 0.001 | inactive: 0.021 | inactive: -0.036 | inactive: -0.118 | inactive: 0.065 | inactive: 0.032 | inactive: -0.008 | inactive: -0.095 | inactive: -0.05 | inactive: -0.025 | inactive: -0.009 | inactive: 0.016 | inactive: 0.081 | inactive: -0.064 | inactive: 0.003 | inactive: -0.014 | inactive: 0.23
NPM3 (UniProt O75607) | inactive: 0.052 | inactive: 0.03 | inactive: -0.065 | inactive: 0.058 | inactive: -0.015 | inactive: -0.007 | active: -0.376 | inactive: 0.158 | inactive: -0.023 | inactive: 0.025 | inactive: -0.04 | inactive: 0.015 | inactive: -0.017 | inactive: 0.062 | inactive: 0.011 | inactive: 0.012 | inactive: 0.028 | inactive: -0.002 | inactive: 0.023 | inactive: -0.015
NUMA1 (UniProt Q14980) | inactive: -0.013 | inactive: 0.019 | inactive: 0.015 | inactive: -0.001 | inactive: -0.01 | inactive: 0.041 | inactive: 0.009 | inactive: -0.014 | inactive: 0.007 | inactive: -0.01 | inactive: -0.004 | inactive: -0.037 | inactive: 0.032 | inactive: -0.017 | inactive: 0.02 | inactive: 0.038 | inactive: 0.022 | inactive: 0.03 | inactive: 0.003 | inactive: -0.014
NTMT1 (UniProt Q9BV86) | inactive: 0.023 | inactive: 0.026 | inactive: 0.026 | inactive: -0.029 | inactive: -0.024 | inactive: 0.015 | inactive: 0.055 | inactive: -0.101 | inactive: 0.008 | inactive: 0.056 | inactive: 0.047 | inactive: -0.175 | inactive: 0.018 | inactive: 0.065 | inactive: 0.023 | inactive: -0.006 | inactive: 0.166 | inactive: -0.007 | inactive: -0.016 | inactive: 0.057
NOL10 (UniProt Q9BSC4) | inactive: -0.026 | inactive: -0.016 | inactive: -0.039 | inactive: -0.398 | inactive: -0.043 | inactive: 0.084 | inactive: 0.012 | inactive: -0.042 | inactive: 0.094 | inactive: 0.112 | inactive: -0.009 | inactive: -0.213 | inactive: 0.097 | inactive: 0.164 | inactive: 0.051 | inactive: -0.192 | inactive: 0.021 | inactive: 0.124 | inactive: 0.017 | inactive: 0.049
NNMT (UniProt P40261) | inactive: 0.024 | inactive: -0.036 | inactive: -0.059 | inactive: 0.008 | inactive: 0.056 | inactive: 0.015 | inactive: -0.062 | inactive: 0.03 | inactive: -0.043 | inactive: 0.021 | inactive: -0.001 | inactive: -0.03 | inactive: 0 | inactive: -0.049 | inactive: -0.086 | inactive: 0.043 | active: -0.317 | inactive: 0 | inactive: 0.009 | inactive: 0.004
NOP16 (UniProt Q9Y3C1) | inactive: 0.017 | inactive: -0.007 | inactive: -0.003 | inactive: -0.003 | inactive: -0.026 | inactive: 0.008 | inactive: 0.046 | inactive: -0.007 | inactive: 0.011 | inactive: 0.008 | inactive: 0.018 | inactive: 0.013 | inactive: 0.053 | inactive: -0.013 | inactive: -0.009 | inactive: 0.005 | inactive: 0.03 | inactive: -0.008 | inactive: -0.021 | inactive: -0.012

Random excerpt: 2 entries already listed, in no set order.
Target | log2 fold change (vemurafenib) | log2 fold change [1] | log2 fold change (barasertib) | log2 fold change [2] | log2 fold change (volasertib) | log2 fold change [3] | log2 fold change [4] | log2 fold change [5] | log2 fold change (saracatinib) | log2 fold change (sotrastaurin) | log2 fold change (alvocidib) | log2 fold change (Tubastatin A) | log2 fold change [6] | log2 fold change (defactinib) | log2 fold change [7] | log2 fold change (encorafenib) | log2 fold change [8] | log2 fold change (alisertib) | log2 fold change [9] | log2 fold change (gefitinib)
NOL10 (UniProt Q9BSC4) | inactive: -0.026 | inactive: -0.016 | inactive: -0.039 | inactive: -0.398 | inactive: -0.043 | inactive: 0.084 | inactive: 0.012 | inactive: -0.042 | inactive: 0.094 | inactive: 0.112 | inactive: -0.009 | inactive: -0.213 | inactive: 0.097 | inactive: 0.164 | inactive: 0.051 | inactive: -0.192 | inactive: 0.021 | inactive: 0.124 | inactive: 0.017 | inactive: 0.049
NTHL1 (UniProt P78549) | inactive: 0.083 | inactive: 0.061 | inactive: -0.042 | inactive: 0.101 | inactive: 0.005 | inactive: -0.069 | inactive: -0.01 | inactive: -0.224 | inactive: -0.079 | inactive: 0.097 | inactive: -0.041 | inactive: -0.073 | inactive: -0.017 | inactive: 0.172 | inactive: -0.013 | inactive: -0.222 | inactive: 0.289 | inactive: -0.097 | inactive: 0.15 | inactive: -0.001

— the supplement of paper PMC10849652
